PubChem BioAssay AID1487 (National Center for Advancing Translational Sciences (NCATS), 2009)
The other results are listed elsewhere or left out. Shown are side measurements of this screen, not its main read-out; they come without a call. The list favours compounds with an active or inconclusive main result. Potencies come from curve fits of mixed quality, noted in brackets.

Assay: qHTS Assay for Modulators of Lamin A Splicing
Details: HeLa LMNA splicing GFP/RFP minigene ratio, 48 h
Outline: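 S3 HeLa cells stably expressing lamin A-EGFP splicing minigene plus DsRed2, 600 cells/well, 48 h compound exposure at 37C. Laser-scanning cytometry; analysed as GFP (500-530 nm)/RFP (575-640 nm) total intensity ratio; 0.5% DMSO vehicle.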

[1] = measured here: GFP splicing reporter channel
[2] = measured here: RFP viability control channel

SMILES	AC50 [1]	AC50 [2]
CC(=O)c1c(C)[nH]c(C(=O)CSc2nnc(N)s2)c1C	3.16 µM [falling, full curve]	2.82 µM [falling, full curve]
COc1cc(OC)c(NS(=O)(=O)c2cc(-c3cnc(C)o3)ccc2OC)cc1Cl	3.16 µM [rising, partial curve]	5.01 µM [rising, partial curve]
Cc1ccccc1C(=O)Nc1ccc2c(C#N)c3nc4ccccc4nc3n2c1		6.31 µM [rising, partial curve, poor fit]
COc1ccc(-c2cc(C(=O)O)nc3ccc4ccccc4c23)cc1OC	0.631 µM [rising, full curve, poor fit]	
CCCc1ccc(OCC(=O)NNC(=S)NC(=O)c2ccco2)cc1		20 µM [rising, single point]
O=C(Cn1c2c(sc1=O)C1c3ccccc3OCC1CS2)Nc1ccc(Cl)c(Cl)c1 (stereo not given)		7.08 µM [rising, partial curve]
Cc1cc(NC2CCCCC2)nc2ccccc12		31.6 µM [rising, single point]
COc1ccc2oc(C(=O)OCC(=O)c3ccc4c(c3)OCCO4)c(C)c2c1		10 µM [rising, partial curve, poor fit]
Cc1cccc(N=C2NC(=O)/C(=C/c3cn(C)c4ccccc34)S2)c1		35.5 µM [rising, single point]
C(=C\c1ccccc1)/CSc1nnc(-c2ccccc2)n1Cc1ccco1	7.08 µM [falling, partial curve]	7.94 µM [falling, partial curve]
CCOc1ccc(-c2nc(S(=O)(=O)c3ccccc3)c(N3CCOCC3)o2)cc1	0.0141 µM [rising, full curve, poor fit]	0.0178 µM [rising, full curve, poor fit]
CNC(CC(=O)c1ccc([N+](=O)[O-])cc1)C(Cl)(Cl)Cl (stereo not given)	35.5 µM [falling, single point]	
COC(=O)c1scc(-c2ccc(C)cc2)c1S(=O)(=O)N1CCN(c2ccc(OC)cc2)CC1	0.00891 µM [falling, full curve, poor fit]	
CCNC(=O)NC(=O)C(C)OC(=O)c1oc2ccccc2c1CSC1CCCCC1 (stereo not given)		6.31 µM [falling, single point]
Cc1oc2ccc(O)c(CN(C)C)c2c1C(=O)c1ccccc1	0.0398 µM [rising, full curve, poor fit]	0.0224 µM [rising, full curve, poor fit]
O=C(CN(CC1CCCO1)C(=O)CCC(=O)Nc1nccs1)NCC1CCCO1 (stereo not given)		0.2 µM [rising, partial curve, poor fit]
COc1ccc(Cl)c(Cn2c(NCc3ccco3)nc3c2c(=O)n(C)c(=O)n3C)c1		22.4 µM [rising, single point]
O=C(N/N=C/C(Cl)=C/c1ccccc1)c1cnccn1	0.631 µM [falling, single point]	
CCOc1ccccc1C(=O)Nc1ccsc1C(=O)OC		7.94 µM [rising, partial curve]

Individual results from the list:
In AC50 [1], CNC(CC(=O)c1ccc([N+](=O)[O-])cc1)C(Cl)(Cl)Cl (stereo not given) shows 35.5 µM [falling, single point]
In AC50 [2], COc1ccc2oc(C(=O)OCC(=O)c3ccc4c(c3)OCCO4)c(C)c2c1 shows 10 µM [rising, partial curve, poor fit]

Additional structures follow:

SMILES	AC50 [1]	AC50 [2]
O=C(NN=C1CCCCCCCCCCC1)c1cccc(S(=O)(=O)N2CCOCC2)c1	0.282 µM [rising, full curve, poor fit]	
COc1ccc(NC(=O)c2sc3nc4n(c(=O)c3c2C)CCC4)cc1Cl	39.8 µM [rising, partial curve, poor fit]	
C=CCN1C(=O)/C(=c2\sc3nc(=O)c(Cc4ccccc4Cl)nn3c2=O)c2ccccc21	0.00891 µM [rising, full curve, poor fit]	0.00447 µM [rising, full curve, poor fit]
Cn1c(=O)n(CC(=O)N2CCN(c3nnc(-c4ccccc4)c4ccccc34)CC2)c2ccccc21		11.2 µM [rising, partial curve]
CCOc1ccc(CCNC(=O)COC(=O)c2ccccc2O)cc1OCC	0.282 µM [falling, full curve, poor fit]	0.282 µM [falling, full curve, poor fit]
O=C(NCc1ccc(Cl)cc1)c1cnc2sc(N3CCCC3)nn2c1=O	0.0224 µM [falling, full curve, poor fit]	
Cc1cccc(Nc2ccccc2C(=O)NCc2ccco2)c1C	22.4 µM [falling, single point]	20 µM [falling, partial curve]
CCOc1ccc(C(c2c(O)cc(C)n(CCOC)c2=O)N2CCC(C)CC2)cc1 (stereo not given)	0.708 µM [rising, full curve, poor fit]	
COc1cccc(OC)c1OCCCOc1ccc(C)cc1Br		12.6 µM [rising, partial curve, poor fit]
C/C(CCc1ccccc1)=N\NC(=O)C1C2CCCCC21 (stereo not given)		20 µM [falling, partial curve, poor fit]
CCC(=O)N(CCN1CCOCC1)Cc1cc2cc3c(cc2nc1Cl)OCO3		11.2 µM [falling, single point]
Cc1ccc(Cl)cc1NC(=S)N(Cc1ccccc1)Cc1cccnc1	14.1 µM [falling, single point]	
NC1=NC2(CCCCC2)N(c2ccc(F)cc2F)C(N)=N1	3.16 µM [falling, partial curve]	6.31 µM [falling, single point]
COc1ccc(CNC(=O)/C=C/c2ccc(S(=O)(=O)NCc3ccco3)cc2)cc1OC		20 µM [rising, partial curve]
COc1ccc(N=C2NN=C(c3c(C)[nH]c4ccccc34)CS2)cc1	1.26 µM [rising, partial curve, poor fit]	
O=c1[nH]c(=O)n(Cc2ccco2)c2c1C(C(F)(F)F)(C(F)(F)F)N=C(c1ccc(F)cc1)N2		1.41 µM [rising, partial curve]
C=CCn1c(COc2ccc(Cl)cc2)nnc1SCc1ccc(C#N)cc1	12.6 µM [rising, single point]	35.5 µM [rising, single point]
Oc1ccc(Cl)cc1/C=C/c1ccc2cccc(O)c2n1		25.1 µM [rising, single point]
Cc1ccc(Cl)cc1NC(=O)CC(O)(C(F)(F)F)C(F)(F)F	20 µM [rising, single point]	35.5 µM [rising, single point]

SMILES	AC50 [1]	AC50 [2]
CC(=O)c1ccc(OCCCC(=O)N2CCN(S(=O)(=O)c3cccs3)CC2)cc1	10 µM [rising, partial curve, poor fit]	11.2 µM [rising, single point]
COc1ccc(NC(=O)CN(Cc2ccccc2)S(C)(=O)=O)cc1OC	35.5 µM [rising, single point]	
O=C(CNC(=S)N(Cc1ccccc1)Cc1cccnc1)NC1CCCC1		10 µM [rising, partial curve]
Cc1cccc(NC(=O)Cn2nnc(C(=O)Nc3ccccc3Br)c2N)c1C		3.55 µM [rising, partial curve, poor fit]
Cn1c(=O)c2c(nc3n2CCS3)n(C)c1=O		5.01 µM [falling, full curve, poor fit]
CCC(=O)c1cc(F)c(N2CCN(S(=O)(=O)c3ccc(C)cc3)CC2)cc1C	5.62 µM [rising, partial curve]	20 µM [rising, partial curve]
CCc1cccc2c(C(=O)COC(=O)/C=C/c3ccccc3OC)c[nH]c12		2 µM [rising, partial curve, poor fit]
Cc1ccc(/C=C/C(=O)NCCCc2ccccc2)cc1		35.5 µM [rising, single point]
CS(=O)(=O)c1cnc(-c2cccnc2)nc1N	0.0501 µM [falling, full curve, poor fit]	0.0126 µM [falling, full curve, poor fit]
Oc1ccc(Nc2nc3ccccc3nc2Nc2ccc(O)cc2)cc1	35.5 µM [falling, single point]	6.31 µM [falling, single point]
O=C(NC(NC(=S)Nc1ccc(Cl)cc1Cl)C(Cl)(Cl)Cl)c1cccc([N+](=O)[O-])c1 (stereo not given)	12.6 µM [falling, partial curve]	12.6 µM [falling, partial curve]
CCCCSCCCNC(=O)Nc1ccc(CC)cc1		2.82 µM [falling, partial curve]
Oc1c(N=Nc2ccccn2)ccc2ccccc12	0.447 µM [falling, single point]	0.126 µM [falling, partial curve]
CC(C)C(=O)N1CCN(c2ccc(NC(=O)c3ccc4c(c3)OCCO4)cc2Cl)CC1	35.5 µM [falling, single point]	2.51 µM [falling, partial curve]
CC1CCN(CC(=O)Nc2ccc(N3CCCCCC3)cc2)CC1	11.2 µM [falling, partial curve, poor fit]	
O=C(CN1CCC(c2nc3ccccc3s2)CC1)NCc1ccccc1	20 µM [rising, single point]	22.4 µM [rising, single point]
COC1(OC)N=C(N)C2(C#N)C(c3ccc4c(c3)OCO4)C12C#N (stereo not given)		5.62 µM [falling, partial curve, poor fit]
O=C(c1ccco1)N(CCC(c1ccccc1)c1ccco1)Cc1ccc(F)cc1 (stereo not given)		17.8 µM [falling, partial curve]
